PubChem BioAssay AID743454, Peter MacCallum Cancer Centre, 2014

- Screen: 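Search for knock-downs that restore vorinostat killing in resistant colon cancer cells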 (primary screen)
- Cell system: human HCT116-VR colon cancer cells, selected for vorinostat resistance
- Reagents: siRNA pool against human genes, 40 nM siRNA pool
- Duration: vorinostat for 24 h, read-out about 72 h after transfection
- Conditions: vorinostat at 2.5 µM final
- Detection: 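Two measures, CellTiter-Fluor viability and luminescent caspase 3/7 activity, each as fold change against same-plate mock wells, mean of duplicates, then screen-wide robust z-score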
- Direction: viability robust z-score: higher = more viable cells than screen typical; caspase robust z-score: higher = more caspase 3/7 activity than screen typical
- Hit rule: 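Hits are knock-downs in viability class RV1/RV2 or caspase class CA1/CA2, excluding ones that killed cells in the no-drug cell-count arm; hits then retested with single siRNAs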
The deposit covers about 18,000 reagents; this is a random part of them. Of all reagents, 450 (2.5%) are marked active. 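Single biological run; no consistent viability z cut-off exists, so the class columns, not z-scores, define the calls.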

{"gene":"NUDT1","viability hit class":"no change","caspase hit class":"no change","viability robust z-score":-1.67,"caspase robust z-score":-0.91,"call":"inactive"}
{"gene":"KRT19","viability hit class":"no change","caspase hit class":"no change","viability robust z-score":0.61,"caspase robust z-score":-0.42,"call":"inactive"}
{"gene":"SOCS4","viability hit class":"no change","caspase hit class":"no change","viability robust z-score":-0.08,"caspase robust z-score":-0.73,"call":"inactive"}
{"gene":"SDCCAG8","viability hit class":"no change","caspase hit class":"no change","viability robust z-score":0.01,"caspase robust z-score":-0.36,"call":"inactive"}
{"gene":"KRT6B","viability hit class":"no change","caspase hit class":"no change","viability robust z-score":1.36,"caspase robust z-score":0.34,"call":"inactive"}
{"gene":"IBSP","viability hit class":"no change","caspase hit class":"no change","viability robust z-score":0.28,"caspase robust z-score":1.66,"call":"inactive"}
{"gene":"IL2RB","viability hit class":"no change","caspase hit class":"no change","viability robust z-score":0.27,"caspase robust z-score":-0.36,"call":"inactive"}
{"gene":"CSMD3","viability hit class":"no change","caspase hit class":"no change","viability robust z-score":-0.46,"caspase robust z-score":0.22,"call":"inactive"}
{"gene":"SYF2","viability hit class":"no change","caspase hit class":"no change","viability robust z-score":-1.36,"caspase robust z-score":-0.18,"call":"inactive"}
{"gene":"M6PR","viability hit class":"no change","caspase hit class":"no change","viability robust z-score":2.12,"caspase robust z-score":-0.62,"call":"inactive"}
{"gene":"FEZF1","viability hit class":"no change","caspase hit class":"no change","viability robust z-score":-1.77,"caspase robust z-score":0.2,"call":"inactive"}
{"gene":"CST9L","viability hit class":"no change","caspase hit class":"no change","viability robust z-score":-0.21,"caspase robust z-score":0.73,"call":"inactive"}

The list goes on (3 carried over from the part before).
{"gene":"M6PR","viability hit class":"no change","caspase hit class":"no change","viability robust z-score":2.12,"caspase robust z-score":-0.62,"call":"inactive"}
{"gene":"FEZF1","viability hit class":"no change","caspase hit class":"no change","viability robust z-score":-1.77,"caspase robust z-score":0.2,"call":"inactive"}
{"gene":"CST9L","viability hit class":"no change","caspase hit class":"no change","viability robust z-score":-0.21,"caspase robust z-score":0.73,"call":"inactive"}
{"gene":"CXCL2","viability hit class":"no change","caspase hit class":"no change","viability robust z-score":-0.3,"caspase robust z-score":-0.72,"call":"inactive"}
{"gene":"U2AF1","viability hit class":"no change","caspase hit class":"no change","viability robust z-score":-2.61,"caspase robust z-score":0.31,"call":"inactive"}
{"gene":"WNK2","viability hit class":"no change","caspase hit class":"no change","viability robust z-score":0.82,"caspase robust z-score":-0.42,"call":"inactive"}
{"gene":"CXorf66","viability hit class":"no change","caspase hit class":"no change","viability robust z-score":-0.47,"caspase robust z-score":-1.43,"call":"inactive"}
{"gene":"VWF","viability hit class":"no change","caspase hit class":"no change","viability robust z-score":0.32,"caspase robust z-score":-0.7,"call":"inactive"}
{"gene":"XPO5","viability hit class":"no change","caspase hit class":"no change","viability robust z-score":-0.2,"caspase robust z-score":-0.09,"call":"inactive"}
{"gene":"ALDH2","viability hit class":"no change","caspase hit class":"no change","viability robust z-score":0.68,"caspase robust z-score":0.96,"call":"inactive"}
{"gene":"MDGA2","viability hit class":"no change","caspase hit class":"no change","viability robust z-score":1.64,"caspase robust z-score":-0.39,"call":"inactive"}
{"gene":"KMT5A","viability hit class":"no change","caspase hit class":"no change","viability robust z-score":-1.33,"caspase robust z-score":2.47,"call":"inactive"}
